PMC10800070
These are yes or no findings as the source states them, for the method shown. Binding seen in cells or lysates may run through a third protein. Some results given as binding are weak or reduced against the parent protein; the word gives no strength.

By UniProt entry, the sequences of proteins in these tests, tags left out.
UniProt P11798: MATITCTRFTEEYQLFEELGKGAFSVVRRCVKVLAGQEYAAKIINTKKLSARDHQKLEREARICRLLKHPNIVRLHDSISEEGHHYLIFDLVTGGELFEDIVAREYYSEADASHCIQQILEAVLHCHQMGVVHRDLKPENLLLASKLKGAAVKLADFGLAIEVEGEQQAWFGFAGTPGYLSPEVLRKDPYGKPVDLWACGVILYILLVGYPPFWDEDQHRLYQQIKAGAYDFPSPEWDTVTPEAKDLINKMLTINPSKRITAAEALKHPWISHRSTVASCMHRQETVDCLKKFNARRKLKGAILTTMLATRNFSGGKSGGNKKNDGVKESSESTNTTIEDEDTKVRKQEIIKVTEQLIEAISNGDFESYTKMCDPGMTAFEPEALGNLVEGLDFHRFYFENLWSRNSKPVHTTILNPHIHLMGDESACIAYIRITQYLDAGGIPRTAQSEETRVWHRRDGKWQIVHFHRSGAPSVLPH

Target: T1, Rasal1 (mouse (endogenous in mouse hippocampus)) (UniProt Q9Z268)
T1 sequence: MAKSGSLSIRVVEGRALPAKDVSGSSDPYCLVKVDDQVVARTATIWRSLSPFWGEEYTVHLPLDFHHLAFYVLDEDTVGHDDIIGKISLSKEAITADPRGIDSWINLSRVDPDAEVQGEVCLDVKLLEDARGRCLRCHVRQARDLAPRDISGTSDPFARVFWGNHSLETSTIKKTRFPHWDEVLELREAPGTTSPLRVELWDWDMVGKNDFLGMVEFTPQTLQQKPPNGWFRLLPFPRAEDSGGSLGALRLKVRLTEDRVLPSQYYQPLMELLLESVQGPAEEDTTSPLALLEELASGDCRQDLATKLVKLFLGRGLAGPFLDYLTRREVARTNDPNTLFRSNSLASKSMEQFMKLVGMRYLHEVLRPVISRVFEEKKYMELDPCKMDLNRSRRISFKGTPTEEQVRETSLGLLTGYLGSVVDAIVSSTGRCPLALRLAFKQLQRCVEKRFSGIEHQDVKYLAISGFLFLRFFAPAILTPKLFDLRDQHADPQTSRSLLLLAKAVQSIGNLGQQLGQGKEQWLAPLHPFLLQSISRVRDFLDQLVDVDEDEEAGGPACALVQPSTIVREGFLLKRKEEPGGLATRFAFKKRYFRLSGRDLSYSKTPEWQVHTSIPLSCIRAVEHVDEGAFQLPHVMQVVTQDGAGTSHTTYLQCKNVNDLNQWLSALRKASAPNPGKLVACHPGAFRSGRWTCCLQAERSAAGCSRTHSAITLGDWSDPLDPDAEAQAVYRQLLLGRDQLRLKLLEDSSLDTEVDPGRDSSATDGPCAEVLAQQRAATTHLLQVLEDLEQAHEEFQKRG
Assay: co-IP; hippocampal protein (300 μg) incubated with Protein A/G Plus-Agarose beads pretreated with Rasal1 antibody (GenScript) at 4 °C; washed five times with RIPA buffer; Western blot

CaMKII-α (from UniProt P11798 1-478) (enzyme)
binding: binds
